ChEMBL document CHEMBL2346572, “Discovery of AZD3514, a small-molecule androgen receptor downregulator for treatment of advanced prostate cancer” (Bioorg Med Chem Lett, 2013)

Protein sequences, listed by entry. Tags and fused reporters are not part of them. Lines headed by an entry give the natural chain unless they say otherwise; changes in a name come on top.
UniProt Q12809: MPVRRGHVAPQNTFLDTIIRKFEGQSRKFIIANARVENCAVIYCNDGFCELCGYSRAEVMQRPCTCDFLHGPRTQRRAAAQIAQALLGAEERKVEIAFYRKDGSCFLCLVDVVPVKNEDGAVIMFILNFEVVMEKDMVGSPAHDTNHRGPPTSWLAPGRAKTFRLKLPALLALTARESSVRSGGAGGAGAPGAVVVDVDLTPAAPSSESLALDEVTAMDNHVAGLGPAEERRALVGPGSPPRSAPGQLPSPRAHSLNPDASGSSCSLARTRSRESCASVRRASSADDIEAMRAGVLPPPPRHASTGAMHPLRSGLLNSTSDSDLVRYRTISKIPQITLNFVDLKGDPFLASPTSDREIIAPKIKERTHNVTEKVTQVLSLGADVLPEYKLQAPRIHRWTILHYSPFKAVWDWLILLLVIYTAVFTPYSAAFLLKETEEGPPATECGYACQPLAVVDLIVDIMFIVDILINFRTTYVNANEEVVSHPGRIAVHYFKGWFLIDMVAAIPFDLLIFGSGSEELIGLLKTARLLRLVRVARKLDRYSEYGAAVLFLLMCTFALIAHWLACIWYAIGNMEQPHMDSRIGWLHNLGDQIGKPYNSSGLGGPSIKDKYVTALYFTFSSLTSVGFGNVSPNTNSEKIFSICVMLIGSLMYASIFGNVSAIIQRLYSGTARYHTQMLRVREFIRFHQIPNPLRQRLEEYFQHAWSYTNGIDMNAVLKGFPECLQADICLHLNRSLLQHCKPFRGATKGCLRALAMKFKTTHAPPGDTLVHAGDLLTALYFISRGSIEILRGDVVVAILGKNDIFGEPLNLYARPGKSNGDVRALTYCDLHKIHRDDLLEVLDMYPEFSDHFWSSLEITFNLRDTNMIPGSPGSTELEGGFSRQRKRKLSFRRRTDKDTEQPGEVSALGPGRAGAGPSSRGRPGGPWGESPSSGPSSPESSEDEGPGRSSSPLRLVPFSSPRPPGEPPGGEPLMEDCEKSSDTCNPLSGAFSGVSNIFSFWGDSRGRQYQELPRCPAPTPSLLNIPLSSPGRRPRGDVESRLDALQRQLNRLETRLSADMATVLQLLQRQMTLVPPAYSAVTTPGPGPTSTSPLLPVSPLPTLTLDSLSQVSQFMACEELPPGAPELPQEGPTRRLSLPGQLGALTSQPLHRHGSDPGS

Columns and labels:
[1] = molecular target: Voltage-gated inwardly rectifying potassium channel KCNH2 (Homo sapiens, UniProt Q12809); assay: Inhibition of human ERG by IonWorks assay
[2] = physchem; conditions: buffer

| Structure (SMILES) | IC50 [1] [µM] | solubility thermodynamic at 24 h [2] [µM] |
| --- | --- | --- |
| Fc1ccc(CN2CCN(c3ccc4nnc(C(F)(F)F)n4n3)CC2)cc1 | 10.7 | – |
| OC1(c2ccc(F)cc2)CCN(c2ccc3nnc(C(F)(F)F)n3n2)CC1 | – | < 0.9 |
